These are yes or no findings as the source states them, for the method shown. Some results given as binding are weak or reduced against the parent protein; the word gives no strength.

By UniProt entry, the sequences of proteins in these tests, tags left out. Where a name states a change or a piece, a line headed by the entry shows the natural chain unless it says otherwise. Residues count along the entry.
UniProt P07305, residues 2-194: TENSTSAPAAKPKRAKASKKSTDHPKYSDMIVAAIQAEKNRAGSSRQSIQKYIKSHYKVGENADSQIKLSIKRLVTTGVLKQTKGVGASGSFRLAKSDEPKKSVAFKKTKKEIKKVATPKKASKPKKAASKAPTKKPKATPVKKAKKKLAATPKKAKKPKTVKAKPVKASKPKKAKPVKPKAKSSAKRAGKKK
UniProt P26022: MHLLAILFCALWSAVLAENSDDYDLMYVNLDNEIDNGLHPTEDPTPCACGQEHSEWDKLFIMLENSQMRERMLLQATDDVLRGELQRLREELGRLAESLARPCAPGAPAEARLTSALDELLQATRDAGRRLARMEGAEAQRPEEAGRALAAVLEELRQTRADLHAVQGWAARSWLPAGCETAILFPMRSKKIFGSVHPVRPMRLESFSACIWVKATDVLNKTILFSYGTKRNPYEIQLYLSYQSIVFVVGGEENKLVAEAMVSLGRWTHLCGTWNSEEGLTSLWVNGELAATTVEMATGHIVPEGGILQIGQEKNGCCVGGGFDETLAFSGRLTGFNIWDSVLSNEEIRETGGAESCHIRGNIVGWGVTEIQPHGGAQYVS

Experiment [1] addresses recombinant human histone H1 (human) (UniProt P07305). The experiment is described as follows: SPR, histone immobilized; affinity attenuated by EDTA/EGTA (FIGS. 9A and C). In general terms: SPR reads the build-up and loss of mass on a sensor chip optically.
Experiment [2] shares this target. The experiment in a line: ELISA, histone immobilized, HRP-anti-His detection (FIG. 8A). Background: In an ELISA, binding on a coated surface is turned into a signal by an enzyme label.
For experiment [3] the target is unchanged. The experiment is described as follows: ELISA binding assay and BIAcore SPR, histone immobilized (FIG. 1A).
The target is the same in experiment [4]. The experiment is described as follows: ELISA, histone immobilized, HRP-anti-PTX3 PPZ1228 detection, with CaCl2 or EDTA (FIG. 4).
The target is the same in experiment [5]. The experiment in a line: ELISA binding assay, histone immobilized, anti-Myc detection (FIG. 2B).
Experiment [6] shares this target. The experiment in a line: ELISA, histone immobilized, HRP-anti-His detection.
For experiment [7] the target is unchanged. The experiment in a line: ELISA, histone immobilized, HRP-anti-His detection (FIG. 8B).
The target is the same in experiment [8]. The experiment in a line: SPR, histone immobilized; affinity attenuated by EDTA/EGTA (FIGS. 9B and C).

For “Myc- and His-tagged full-length human PTX3 (from UniProt P26022 18-381)”, the binding result in experiment [1] and in experiment [2] was “binds” throughout.
“tag-free full-length recombinant human PTX3 (from UniProt P26022 18-381)”: the binding result in experiment [3] and in experiment [4] was “binds” each time.
In the case of “Myc- and His-tagged C-terminal domain human PTX3 (animal cell expressed) (from UniProt P26022 179-381)”, the binding result in experiment [1], in experiment [5] and in experiment [6] was “binds” in each case.
For “Myc- and His-tagged N-terminal domain human PTX3 (animal cell expressed) (from UniProt P26022 18-178)”, the binding entry in experiment [1], in experiment [5] and in experiment [2] was “binds” in each case.
Regarding “Escherichia coli-expressed N-terminal domain human PTX3 wherein the 47th, 49th, 103rd cysteine residues were replaced with serine residue (from UniProt P26022 18-178)”, the binding result in experiment [7] and in experiment [8] was “binds” throughout.
